Results are given in words; binding and its absence hold for the method and conditions named. In cells and extracts the contact can be indirect. Some binding calls cover weakened binding; strength is not graded here.
Assays:
[1] = biological target: Bovine Serum Albumin (bovine) (UniProt P02769); assay: pull-down; 10 ug of 6xHis-tagged protein bound to Ni-NTA beads (legend: nickel or protein-A Sepharose beads covered with rSRSF3, rU2AF65, rU2AF65-RS or BSA), blocked in 10% BSA, incubated overnight at 4°C with 200 ug of H69 nuclear extract in PBS, washed three times with PBS; bound proteins detected by western blot; only the target purified
[2] = biological target: recombinant U2AF65, full-length, 6xHis-tagged (UniProt P26368); assay: as above

Amino acid sequences for entries named in this document (tags omitted). Residues count along the entry.
UniProt P02769, residues 25-607: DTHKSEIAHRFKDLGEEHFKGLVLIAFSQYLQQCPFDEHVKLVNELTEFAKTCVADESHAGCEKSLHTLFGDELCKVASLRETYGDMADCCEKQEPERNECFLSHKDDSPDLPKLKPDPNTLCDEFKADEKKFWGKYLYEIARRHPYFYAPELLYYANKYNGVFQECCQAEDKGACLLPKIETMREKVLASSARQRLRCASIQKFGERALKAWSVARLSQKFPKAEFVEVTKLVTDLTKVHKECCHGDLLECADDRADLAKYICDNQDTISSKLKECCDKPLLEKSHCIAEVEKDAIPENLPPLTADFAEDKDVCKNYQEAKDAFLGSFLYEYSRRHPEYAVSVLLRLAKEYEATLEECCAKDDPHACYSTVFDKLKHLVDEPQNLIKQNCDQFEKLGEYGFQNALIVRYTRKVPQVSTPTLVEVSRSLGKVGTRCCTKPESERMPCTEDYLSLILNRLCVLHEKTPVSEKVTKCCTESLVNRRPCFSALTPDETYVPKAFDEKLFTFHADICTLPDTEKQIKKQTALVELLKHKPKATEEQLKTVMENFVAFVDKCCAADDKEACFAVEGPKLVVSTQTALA
UniProt P26368: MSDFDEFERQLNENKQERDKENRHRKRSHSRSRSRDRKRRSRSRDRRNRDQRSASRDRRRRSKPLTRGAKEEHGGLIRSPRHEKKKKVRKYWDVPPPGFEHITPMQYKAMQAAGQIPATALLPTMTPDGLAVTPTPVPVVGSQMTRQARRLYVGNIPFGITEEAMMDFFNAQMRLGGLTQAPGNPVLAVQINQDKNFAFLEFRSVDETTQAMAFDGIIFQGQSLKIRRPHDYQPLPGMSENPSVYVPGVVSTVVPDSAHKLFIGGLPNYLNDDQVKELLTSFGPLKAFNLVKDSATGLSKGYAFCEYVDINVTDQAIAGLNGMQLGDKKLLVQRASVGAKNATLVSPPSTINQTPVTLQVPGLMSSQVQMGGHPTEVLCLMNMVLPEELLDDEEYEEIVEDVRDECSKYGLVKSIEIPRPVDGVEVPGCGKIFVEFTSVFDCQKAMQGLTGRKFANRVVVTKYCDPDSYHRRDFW
UniProt P08621: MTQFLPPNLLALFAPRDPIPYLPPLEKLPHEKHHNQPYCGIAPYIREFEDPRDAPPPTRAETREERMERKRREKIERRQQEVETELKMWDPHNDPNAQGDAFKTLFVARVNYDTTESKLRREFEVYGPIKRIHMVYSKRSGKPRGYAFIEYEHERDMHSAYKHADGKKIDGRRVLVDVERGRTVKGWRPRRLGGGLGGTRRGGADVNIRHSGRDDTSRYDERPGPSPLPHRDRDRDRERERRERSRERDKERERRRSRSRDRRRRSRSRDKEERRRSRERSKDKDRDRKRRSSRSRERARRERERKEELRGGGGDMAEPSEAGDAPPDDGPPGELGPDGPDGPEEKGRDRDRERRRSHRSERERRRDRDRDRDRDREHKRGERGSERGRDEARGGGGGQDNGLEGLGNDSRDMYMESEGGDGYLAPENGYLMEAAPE

- binding [1]: no binding
- binding [2]: binds
Substance: U1 snRNP 70K (from UniProt P08621 1-437)
